These are yes or no findings as the source states them, for the method shown. In cells and extracts the contact can be indirect. These calls come from enrichment with a bait or labelling near it, and not all partners need be listed.
Target: N-terminal TurboID-MAFG fusion (human) (UniProt O15525)
Test: proximity labelling; TurboID-MAFG versus TurboID-NLS control in WM164 cells, 50 µM biotin for 10 min at 37 °C; RIPA lysate on Streptavidin Sepharose beads, on-bead digestion, label-free LC-MS/MS, n = 3 each

Sequences of proteins named here, by UniProt entry; tags and fusion partners are left off. Residues count along the entry.
UniProt O15525: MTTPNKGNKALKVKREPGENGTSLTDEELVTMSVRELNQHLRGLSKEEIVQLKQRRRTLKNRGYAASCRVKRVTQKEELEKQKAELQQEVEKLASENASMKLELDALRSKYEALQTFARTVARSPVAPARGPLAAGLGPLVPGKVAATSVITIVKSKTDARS
UniProt Q9BYV9: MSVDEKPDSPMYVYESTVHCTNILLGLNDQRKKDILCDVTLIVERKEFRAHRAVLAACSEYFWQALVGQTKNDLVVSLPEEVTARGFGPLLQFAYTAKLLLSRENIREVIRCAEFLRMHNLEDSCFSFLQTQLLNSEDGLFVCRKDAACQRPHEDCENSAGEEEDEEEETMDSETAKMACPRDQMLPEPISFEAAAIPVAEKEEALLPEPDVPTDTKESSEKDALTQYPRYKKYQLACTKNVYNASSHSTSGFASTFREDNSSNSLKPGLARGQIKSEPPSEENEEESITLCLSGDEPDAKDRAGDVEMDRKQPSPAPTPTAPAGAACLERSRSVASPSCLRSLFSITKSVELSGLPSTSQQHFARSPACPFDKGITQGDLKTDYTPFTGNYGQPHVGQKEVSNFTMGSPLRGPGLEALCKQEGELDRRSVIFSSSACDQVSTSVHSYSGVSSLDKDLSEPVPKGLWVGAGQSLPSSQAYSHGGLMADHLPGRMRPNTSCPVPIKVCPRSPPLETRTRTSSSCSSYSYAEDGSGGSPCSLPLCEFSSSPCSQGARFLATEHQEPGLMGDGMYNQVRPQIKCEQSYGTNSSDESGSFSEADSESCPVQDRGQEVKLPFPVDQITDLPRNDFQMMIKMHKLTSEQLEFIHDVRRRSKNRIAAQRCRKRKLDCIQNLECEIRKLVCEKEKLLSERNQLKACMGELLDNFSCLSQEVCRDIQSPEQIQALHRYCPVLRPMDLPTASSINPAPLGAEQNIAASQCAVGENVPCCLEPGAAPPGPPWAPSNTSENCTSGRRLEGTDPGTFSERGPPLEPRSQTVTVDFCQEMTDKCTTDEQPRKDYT
UniProt Q14494, residues 104-772: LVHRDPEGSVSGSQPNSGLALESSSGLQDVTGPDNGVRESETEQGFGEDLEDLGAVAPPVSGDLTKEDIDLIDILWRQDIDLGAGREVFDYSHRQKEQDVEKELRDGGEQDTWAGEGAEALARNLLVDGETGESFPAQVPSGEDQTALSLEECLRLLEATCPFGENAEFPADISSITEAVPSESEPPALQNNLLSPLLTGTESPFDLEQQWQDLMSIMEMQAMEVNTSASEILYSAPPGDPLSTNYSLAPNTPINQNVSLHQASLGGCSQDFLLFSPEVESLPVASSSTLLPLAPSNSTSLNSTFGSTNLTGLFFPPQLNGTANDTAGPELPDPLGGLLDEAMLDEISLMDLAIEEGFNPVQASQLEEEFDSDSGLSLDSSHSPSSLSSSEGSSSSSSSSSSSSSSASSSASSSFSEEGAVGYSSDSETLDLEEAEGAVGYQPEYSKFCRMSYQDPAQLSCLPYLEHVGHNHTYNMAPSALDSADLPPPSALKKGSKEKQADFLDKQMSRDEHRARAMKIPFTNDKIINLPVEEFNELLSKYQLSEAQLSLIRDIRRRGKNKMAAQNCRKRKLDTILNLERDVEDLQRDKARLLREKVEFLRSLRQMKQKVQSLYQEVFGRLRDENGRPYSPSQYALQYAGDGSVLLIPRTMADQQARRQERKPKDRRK
UniProt Q9ULX9: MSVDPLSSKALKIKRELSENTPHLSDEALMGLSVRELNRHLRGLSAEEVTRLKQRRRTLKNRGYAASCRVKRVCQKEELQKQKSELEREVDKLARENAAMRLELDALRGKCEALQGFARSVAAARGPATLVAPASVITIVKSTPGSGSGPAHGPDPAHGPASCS

Row | binding | Substance
1 | binds | BACH2, endogenous (from UniProt Q9BYV9 1-841)
2 | binds | NRF1, endogenous (from UniProt Q14494 104-772)
3 | binds | MAFF, endogenous (from UniProt Q9ULX9 1-164)

Reference: article PMC13385793
